From US20230355549A1, “METHOD OF PREVENTING KIDNEY INJURY DISRUPTION OF INTESTINAL LYMPHATICS” (Vanderbilt University, priority 2020, published 2023)

Tested on: Sprague Dawley rats
Type: in vivo, rat
Experimental: Adult male Sprague Dawley rats (200-225 g, Charles River) were housed under a 12-h light/dark cycle with free access to normal rat chow and water. Kidney injury was induced by a single injection of puromycin […] (PAN) (125 mg/kg body weight, i.p.) while saline-injected rats served as controls (Cont). Eight days after injection, rats were sacrificed and blood, urine, and tissues were harvested. We also studied adult male (12 weeks old) Nphs1-hCD25 transgenic (NEP25, C57 bl/6 background) mice expressing human CD25 on podocytes can be selectively injured by injection of recombinant immunotoxin, anti-Tac (Fv)-PE38 (LMB2, 1 ng/g BW, i.v. generously provided by Dr. Ira Pastan) that results in proteinuria. These and wild type control mice were housed under normal conditions with free access to regular rodent chow and water. Two weeks after LMB2, mice were sacrificed and blood, urine and tissues harvested. All animal procedures were approved by the Institutional Animal Care and Use Committee at Vanderbilt University.
Mesenteric lymph was collected in a subset of conscious rats following cannulation of the mesenteric lymph duct. The rats were placed in Bollman cages in a temperature- and humidity-controlled incubator and lymph collected hourly for at least 3 h.
Albumin (Exocell), apoAI (Mybiosource), sphingosine-1 phosphate (S1P) (Mybiosource) and VEGF-C levels (Mybiosource) were measured by ELISA. Albuminuria was measured as urine albumin-to-creatinine ratio (ACR) (Nephrat II, Exocell) and QuantiChrom™ Creatinine Assay Kit (Bioassay Systems), respectively. Plasma and lymph total cholesterol and triglycerides were measured enzymatically (Cliniqa). HDL and LDL fractions were isolated from plasma and lymph by density-gradient ultracentrifugation after adjustment with potassium bromide. Lipoprotein particle size was evaluated by NMR methodology (Liposcience). Colorimetric assays were used to measure protein (BCA, ThermoFisher). Lipoproteins in plasma and lymph were separated by size-exclusion chromatography (SEC) using an Akta Pure fast-protein liquid chromatography (FPLC) system (GE Healthcare). Total IsoLG-protein adduct by LC/MS was measured as IsoLG-lysine after complete proteolytic digestion of lymph samples.

[1] = PAN rats, not significant vs Cont

CN(C)c1ncnc2c1ncn2[C@@H]1O[C@H](CO)[C@@H](N)[C@H]1O [PAN, puromycin aminoglycoside]
IsoLG-lysine level in plasma [1]: 0.20±0.07 pmol/mg protein | plasma HDL particle size [1]: 10.7±0.1 nm | plasma VEGF-C [1]: 11.03 ± 0.76 pg/mL | increase in intestinal lymph flow rate (PAN-treated rats vs controls): > 5 fold
